Hit rate of the full screen: of about 580,000 compounds, about 6,100 (1.1%) were called active. Inconclusive results, whose numbers are uncertain, are shown with a selection of clear calls. Calls follow the shape of the dose curve; as a rule, active = well fitted inhibition curve with a large enough effect; inconclusive = small, poorly fitted or top-dose-only effect, or another doubt; inactive = no such curve, though single readings can be large or run the other way. Where the call is inconclusive, the potency comes from a doubtful curve fit.
biological target: Polyunsaturated fatty acid lipoxygenase ALOX12 (Homo sapiens) (UniProt P18054); experiment: Primary qHTS assay for inhibitors of human arachidonate 12S-lipoxygenase (ALOX12): Round 2; settings: purified 12hLO, xylenol orange hydroperoxide absorbance; activity change, negative = inhibition: at 108 µM (top of the series) unless noted
Procedure, shortened: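 Purified human 12hLO (150 nM final) in 25 mM Hepes, 0.01% Triton X-100, pH 7.0 was preincubated 15 min at room temperature with compound. Then 40 uM arachidonic acid was added, 30 min. Hydroperoxide was read by Fe-XO absorbance ratio 573/405 nm.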
% is scaled to controls: 0 for no effect and ±100 for the full control effect; potency is read from the fitted curve at half-maximal effect.

Chains of the proteins cited; added tags and fusions are not shown. Lines headed by an entry give the natural chain unless they say otherwise; changes in a name come on top.
UniProt P18054: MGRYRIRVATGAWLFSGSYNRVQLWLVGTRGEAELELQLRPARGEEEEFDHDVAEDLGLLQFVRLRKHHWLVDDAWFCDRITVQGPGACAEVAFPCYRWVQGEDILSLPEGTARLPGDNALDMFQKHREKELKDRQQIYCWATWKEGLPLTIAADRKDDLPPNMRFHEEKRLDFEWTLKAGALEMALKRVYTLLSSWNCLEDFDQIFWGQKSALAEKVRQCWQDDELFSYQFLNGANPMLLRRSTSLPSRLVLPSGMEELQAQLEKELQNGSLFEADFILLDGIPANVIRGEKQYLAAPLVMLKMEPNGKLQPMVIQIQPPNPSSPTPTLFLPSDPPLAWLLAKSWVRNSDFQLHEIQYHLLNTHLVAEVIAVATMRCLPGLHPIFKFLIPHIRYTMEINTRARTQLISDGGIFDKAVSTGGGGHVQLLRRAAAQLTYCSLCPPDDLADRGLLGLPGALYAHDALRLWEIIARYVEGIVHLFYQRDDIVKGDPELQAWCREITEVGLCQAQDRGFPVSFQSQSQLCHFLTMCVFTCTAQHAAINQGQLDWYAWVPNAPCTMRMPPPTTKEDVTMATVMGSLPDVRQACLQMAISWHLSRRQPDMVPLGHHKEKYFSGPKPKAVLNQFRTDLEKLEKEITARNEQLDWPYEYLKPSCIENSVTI

Row | SMILES | Potency | activity change, negative = inhibition
1 | Cc1ccc(C)c(NC(=O)CN(CCc2ccccc2)S(=O)(=O)c2ccccc2)c1 | inactive | –
2 | C=CCNC(=S)NCc1ccc(F)cc1 | inactive | –
3 | O=c1c2ccccc2oc2cc(C#CC3(O)CCCCC3)ccc12 | inactive | –
4 | O=C(O)[C@@H]1CCCN1C(=O)COc1ccc2c3c(c(=O)oc2c1)CCC3 | inconclusive: 100 µM [inhibitor, single point] | –
5 | O=C(C1CC1)N1CCN(c2nc3ccc(F)cc3s2)CC1 | inconclusive: 112 µM [inhibitor, partial curve, poor fit] | –
6 | NC(=O)c1c(NC(=O)c2ccc(F)cc2Cl)sc2c1CCC2 | inconclusive: 35.5 µM [inhibitor, partial curve, poor fit] | –
7 | CC[C@H](C)[C@@H]1NC(=O)c2cc([N+](=O)[O-])cc(I)c2SC[C@@H](C(N)=O)NC(=O)[C@H](CCCCN)NC1=O | inconclusive: 56.2 µM [inhibitor, partial curve, poor fit] | –
8 | O=C(CC1C(=O)NCCN1CC(c1ccccc1)c1ccccc1)NCc1ccco1 (configuration not stated) | inconclusive: 17.8 µM [inhibitor, full curve] | –
9 | CN(C)S(=O)(=O)c1ccc2c(c1)nnn2CCNC(=O)Nc1ccc(Br)cc1 | inconclusive: 112 µM [inhibitor, partial curve, poor fit] | –
10 | CC(C)C(=O)N=C1SC2CS(=O)(=O)CC2N1Cc1ccc(Cl)cc1 (configuration not stated) | inconclusive: 126 µM [inhibitor, single point] | –
11 | COc1cc([N+](=O)[O-])ccc1-c1ccc(/C=N\n2cnnc2)o1 | inconclusive: 39.8 µM [inhibitor, partial curve, poor fit] | –
12 | Cc1ccc(CCC(=O)Nc2ccc(Cl)cc2)o1 | inconclusive: 44.7 µM [inhibitor, partial curve, poor fit] | –
13 | CCOC(=O)c1c(NC(=O)COC(=O)Cn2cnc3c2c(=O)n(C)c(=O)n3C)sc(C)c1CC | inactive | –
14 | CCCN1C(C(C)=O)=C(OC(=O)c2ccccc2)c2ccccc2S1(=O)=O | inconclusive: 7.08 µM [inhibitor, full curve, poor fit] | –
15 | CCCCOc1ccc(CNC(=O)c2cnc3sc(N4CCOCC4)nn3c2=O)cc1 | inactive | –
16 | Cc1c2ccccc2nc2c(F)c(NC(C)C)c(F)c(F)c12 | inconclusive: 44.7 µM [inhibitor, partial curve, poor fit] | –
17 | COCCCNCCCCSc1ccc(Cl)cc1 | inconclusive: 1 µM [inhibitor, full curve, poor fit] | –
18 | COC(=O)[C@@]12CCCN1[C@H](c1ccc(-c3ccc(Cl)c(Cl)c3)c(OC)c1)[C@H]1C(=O)N(C)C(=O)[C@H]12 | inconclusive: 3.98 µM [inhibitor, full curve, poor fit] | –
19 | O=C1N[C@@H]2CCN(S(=O)(=O)c3cccc(F)c3)[C@@H]2C(=O)N1c1ccc(F)cc1 | inactive | –
20 | O=C(O)c1ccc(CN2C[C@@H]3OCC(=O)N(c4ccccc4)[C@@H]3C2)cc1 | inconclusive: 25.1 µM [inhibitor, full curve] | –
21 | CCOc1ccc(N=Cc2ccc(N(C)C)cc2)cc1 | inactive | –
22 | O=C(Cc1ccc(S(=O)(=O)N2CCOCC2)s1)Oc1ccc(F)cc1 | – | inconclusive: -33.8% [inhibitor]
23 | CCCn1c(C)cc(C(=O)Cn2c(Cl)nc3c2c(=O)n(C)c(=O)n3C)c1C | inactive | –

Row | SMILES | Potency | activity change, negative = inhibition
24 | CCOC(=O)C(C)Oc1cccc2c(=O)n(CC(=O)Nc3ccc4c(c3)OCCO4)ccc12 (configuration not stated) | inconclusive: 0.0485 µM [inhibitor, full curve] | –
25 | CC(C)(C)c1ccc(C(=O)NC2CCN(Cc3ccccc3)CC2)cc1 | inconclusive: 39.8 µM [inhibitor, partial curve, poor fit] | –
26 | COCC(=O)N1CCn2c(nn(-c3ccc(C)cc3)c2=O)C1 | inactive | –
27 | COc1ccc(/C=C/C(=O)N[C@@H](C)C(=O)O)cc1 | inconclusive: 63.1 µM [inhibitor, partial curve, poor fit] | –
28 | CCc1ccc(OCCn2ccnc2)cc1 | inconclusive: 3.98 µM [inhibitor, full curve, poor fit] | –
29 | CC1(C)N=C(N)N=C(N)N1c1ccc(Oc2ccc(Cl)cc2)c(Cl)c1 | – | inconclusive: -48.9% [inhibitor]
30 | O=C1CSc2ccc(C(=O)OCC(=O)Nc3ccccc3[N+](=O)[O-])cc2N1 | inconclusive: 35.5 µM [inhibitor, partial curve, poor fit] | –
31 | CCO[C@H]1CN(C(=O)CCn2c(C)cc(C)nc2=O)C[C@@H]1O | inconclusive: 17.8 µM [inhibitor, full curve, poor fit] | –
32 | CCCNC(=O)C(Cc1ccccc1F)NC(=O)c1ccc(C#N)cc1 (configuration not stated) | inactive | –
33 | Cc1cc2c(cc1C)CSC(c1cc(Cl)cc(Cl)c1O)SC2 | inconclusive: 10 µM [inhibitor, partial curve, poor fit] | –
34 | COc1ccc(OC)c(S(=O)(=O)N2CCN(c3cc(N4CCCC4)nc(C)n3)CC2)c1 | inconclusive: 112 µM [inhibitor, single point] | –
35 | O=C(O)CC1NCCc2ccccc21 (configuration not stated) | inconclusive: 11.2 µM [inhibitor, partial curve, poor fit] | –
36 | CNC(=S)NNc1nc(-c2ccccc2)c2cc(Cl)ccc2n1 | inconclusive: 89.1 µM [inhibitor, partial curve, poor fit] | –
37 | Cc1cccc(NC(=S)NCCc2ccc3c(c2)OCCO3)c1C | inconclusive: 44.7 µM [inhibitor, partial curve, poor fit] | –
38 | Cc1ccc(C(=O)NCC(c2cccnc2)N2CCc3ccccc32)cc1C (configuration not stated) | inactive | –
39 | O=C(O)c1ccc(-n2nnnc2SCc2ccccc2F)cc1 | inactive | –
40 | COc1ccc(CCNC(=O)CCCCn2c(=O)c3ccccc3n(Cc3ccc(F)cc3Cl)c2=O)cc1OC | inconclusive: 112 µM [inhibitor, partial curve, poor fit] | –
41 | O=C(NCC1CCCC(CNC(=O)Nc2ccc(Cl)cn2)C1)Nc1ccc(Cl)cn1 (configuration not stated) | inactive | –
42 | Fc1cccc(-c2nc(CN3CCCC3c3ccsc3)co2)c1 (configuration not stated) | inconclusive: 44.7 µM [inhibitor, partial curve, poor fit] | –
43 | COC[C@@H]1CN(Cc2ccc(OC)cc2OC)C[C@H]1c1nc(C)no1 | inactive | –
44 | CC(C)C[C@@H](CSc1ccccc1)N1CCN(C)CCC1=O | inconclusive: 89.1 µM [inhibitor, single point] | –
45 | C=CC(C)(C)c1c2occc2c(O)c2ccc(=O)oc12 | inactive | –
46 | COc1cc(OC)c(NS(=O)(=O)c2ccc3c(c2)NC(=O)CCS3)cc1Cl | inconclusive: 70.8 µM [inhibitor, partial curve, poor fit] | –

Reformatted tab-delimited: 2 of the compounds above
Row	SMILES	Potency	activity change, negative = inhibition
35	O=C(O)CC1NCCc2ccccc21 (configuration not stated)	inconclusive: 11.2 µM [inhibitor, partial curve, poor fit]	–
45	C=CC(C)(C)c1c2occc2c(O)c2ccc(=O)oc12	inactive	–

Additional compounds follow.

Row | SMILES | Potency | activity change, negative = inhibition
47 | COc1ccc(CNC(=O)COC(=O)C2=Cc3ccccc3OC2)cc1 | inconclusive: 25.1 µM [inhibitor, partial curve, poor fit] | –
48 | COc1ccccc1N=C(C)C1=C(O)COC1=O | inconclusive: 31.6 µM [inhibitor, partial curve, poor fit] | –
49 | COc1ccc(Cl)cc1C(=O)Nc1ccc2c(c1)CCC(=O)N2 | inactive | –
50 | Cc1cc(C)n2c(Nc3ccc4c(c3)OCCO4)c(-c3ccccn3)nc2n1 | inactive | –
51 | Nc1nc(NCC2CCC(CNS(=O)(=O)c3cccc4ccccc34)CC2)nc2ccccc12 (configuration not stated) | inconclusive: 31.6 µM [inhibitor, single point] | –
53 | CNC(=O)[C@@H]1C[C@@H](n2cc(CNC(=O)Nc3cccc(Cl)c3C)nn2)CN1 | inconclusive: 10 µM [inhibitor, full curve, poor fit] | –
54 | CCOCCCNC(=O)CN1C(=O)/C(=C\c2ccc(C)cc2)Sc2ccccc21 | inconclusive: 178 µM [inhibitor, single point] | –
55 | CCOC(=O)c1c(C)oc2nc(C)nc(NCc3ccccc3OCC)c12 | inactive | –
56 | O=C(Cc1cccc(C(F)(F)F)c1)NCc1ccc(CN2CCCCC2)cc1 | inactive | –
57 | Cc1ccc2oc(C(=O)Nc3onc4c3CC(C)CC4)cc(=O)c2c1 (configuration not stated) | inconclusive: 3.55 µM [inhibitor, full curve, poor fit] | –
58 | Cc1ccc(C(=O)NNC(=O)c2n[nH]c(=O)c3ccccc23)cc1C | inactive | –
59 | COc1ccccc1N(C)S(=O)(=O)c1ccc(C(=O)N2CCCc3ccccc32)cc1 | inconclusive: 112 µM [inhibitor, single point] | –
60 | O=S(=O)(c1cc(Cl)c(Cl)cc1Cl)N1CCN2CCCC2C1 (configuration not stated) | inactive | –
61 | CN(C)c1cccc(C(=O)N(Cc2ccccc2)Cc2ccccc2)c1 | inconclusive: 126 µM [inhibitor, single point] | –
62 | CCCc1nc2ccccc2n2c(-c3cccc(C)c3)c3c(=O)n(C)c(=O)n(C)c3c12 | inconclusive: 100 µM [inhibitor, single point] | –
63 | O=C(c1ccc(C(F)(F)F)cc1)N1CCC(c2n[nH]c(=O)n2Cc2ccc(F)cc2)CC1 | inconclusive: 50.1 µM [inhibitor, partial curve] | –
64 | O=S(=O)(N/N=C\C=C\c1ccccc1)c1ccc(Br)cc1 | inconclusive: 50.1 µM [inhibitor, partial curve, poor fit] | –
65 | COc1ncnc2sc(-c3ccccc3)cc12 | inactive | –
66 | CCc1nc2n(n1)C1(CCCCC1)[C@@H]1CCCC[C@@H]1N2C(=O)C1CC1 | inactive | –
67 | O=[N+]([O-])c1ccc(C=NNc2ccc(S(=O)(=O)O)cc2)cc1 | inconclusive: 79.4 µM [inhibitor, partial curve, poor fit] | –

Given as labelled records: two of the compounds above
COc1ccc(/C=C/C(=O)N[C@@H](C)C(=O)O)cc1
  Potency: inconclusive: 63.1 µM [inhibitor, partial curve, poor fit]
O=C(c1ccc(C(F)(F)F)cc1)N1CCC(c2n[nH]c(=O)n2Cc2ccc(F)cc2)CC1
  Potency: inconclusive: 50.1 µM [inhibitor, partial curve]
